From patent US20200017490A1, “Novel Mesoionic Insecticidal Compound” (Nippon Kayaku Kabushiki Kaisha, priority 2016, published 2020)
Some of these results come from one statement about several compounds together. For some assays here: At least one structure is not confirmed: it was looked up by name or label, or the drawing left a doubt.

How the values were obtained:
[1] = system: Brown Planthopper (Nilaparvata lugens); assay type: in vivo; conditions: 200 ppm, rice seedling foliage dipping, third instar larvae, 5 days after the treatment, 25° C.
Description: Biological Test Example 3: Test (Foliage Dipping) for Controlling Brown Planthopper (Nilaparvata lugens)
Ten sampled rice seedlings were dipped in the chemical solution of the test compounds diluted with water to 200 ppm in an amount of 20 mL and air-dried. After air-drying, the rice seedlings held with urethane in a glass cylinder having an inner diameter of 4.5 cm and a length of 14 cm were set up in a plastic cup containing 40 mL of water. Larvae of brown planthoppers in the third instar larva were released in the glass cylinder. The cylinder was covered with a lid of medicine paper and kept in a chamber at a constant temperature of 25° C. for rearing.

[2] = system: Cotton Aphid (Aphis gossypii); assay type: in vivo; conditions: 200 ppm, foliar spraying on cucumber leaf, cotton aphid offspring, 5 days after the treatment, 25° C.
Description: Biological Test Example 1: Test (Foliar Spraying) for Controlling Cotton Aphid (Aphis gossypii)
A cucumber leaf cut to a diameter of 3.5 cm was placed on cotton wool moistened with water. Two adult cotton aphids were released there for offspring for 24 hours and the adult insects were then removed. The diluent of the test compounds diluted with water to 200 ppm in an amount of 2 mL was sprayed onto the cucumber leaves with a spray tower. After air-drying, the sample with cotton wool was placed in a plastic cup, which was covered with a lid and kept in a chamber at a constant temperature of 25° C. for rearing.

Row | Structure (SMILES) | mortality [1] [%] | mortality [2] [%]
1 | CC(C)CON=CCC[n+]1c([O-])c(-c2cccc(C(F)(F)F)c2)c(=O)n2ccccc21 (mixture of isomers) [Compound A-3] | ≥ 80 | 
2 | COCON=CCC[n+]1c([O-])c(-c2cccc(C(F)(F)F)c2)c(=O)n2ccccc21 (mixture of isomers) [Compound A-4] | ≥ 80 | ≥ 80
3 | CCOCON=CCC[n+]1c([O-])c(-c2cccc(C(F)(F)F)c2)c(=O)n2ccccc21 (mixture of isomers) [Compound A-6] | ≥ 80 | ≥ 80
4 | CCOC(C)ON=CCC[n+]1c([O-])c(-c2cccc(C(F)(F)F)c2)c(=O)n2ccccc21 (mixture of isomers) [Compound A-7] | ≥ 80 | 
5 | CC(C)ON=CCC[n+]1c([O-])c(-c2cccc(C(F)(F)F)c2)c(=O)n2ccccc21 (mixture of isomers) [Compound A-11] | ≥ 80 | ≥ 80
6 | COC(=O)CON=CCC[n+]1c([O-])c(-c2cccc(C(F)(F)F)c2)c(=O)n2ccccc21 (mixture of isomers) [Compound A-13] | ≥ 80 | 
7 | COC(=O)C(C)ON=CCC[n+]1c([O-])c(-c2cccc(C(F)(F)F)c2)c(=O)n2ccccc21 (mixture of isomers) [Compound A-14] | ≥ 80 | 
8 | O=c1c(-c2cccc(C(F)(F)F)c2)c([O-])[n+](CCC=NOCCCl)c2ccccn12 (mixture of isomers) [Compound A-15] | ≥ 80 | ≥ 80
9 | COCCON=CCC[n+]1c([O-])c(-c2cccc(C(F)(F)F)c2)c(=O)n2ccccc21 (mixture of isomers) [Compound A-16] | ≥ 80 | ≥ 80
10 | CCOCON=CCC[n+]1c([O-])c(-c2cc(Cl)cc(Cl)c2)c(=O)n2ccccc21 (mixture of isomers) [Compound A-17] | ≥ 80 | 
11 | CC(C)OC(C)ON=CCC[n+]1c([O-])c(-c2cc(Cl)cc(Cl)c2)c(=O)n2ccccc21 (mixture of isomers) [Compound A-19] | ≥ 80 | 
12 | CC(C)OC(C)ON=CCC[n+]1c([O-])c(-c2cccc(C(F)(F)F)c2)c(=O)n2ccccc21 (mixture of isomers) [Compound A-20] | ≥ 80 | ≥ 80
13 | COc1cccc(-c2c([O-])[n+](CCC=NOCCSC)c3ccccn3c2=O)c1 (mixture of isomers) [Compound A-24] | ≥ 80 | 
14 | COc1cccc(-c2c([O-])[n+](CCC=NOCSC)c3ccccn3c2=O)c1 (mixture of isomers) [Compound A-25] | ≥ 80 | 
15 | O=c1c(-c2cccc(C(F)(F)F)c2)c([O-])[n+](CCC=NOCCC(F)(F)F)c2ccccn12 (mixture of isomers) [Compound A-26] | ≥ 80 | 
16 | CCC(C)ON=CCC[n+]1c([O-])c(-c2cccc(C(F)(F)F)c2)c(=O)n2ccccc21 (mixture of isomers) [Compound A-27] | ≥ 80 | ≥ 80
17 | CCCCON=CCC[n+]1c([O-])c(-c2cccc(C(F)(F)F)c2)c(=O)n2ccccc21 (mixture of isomers) [Compound A-28] | ≥ 80 | 
18 | CCOC(C)ON=CCC[n+]1c([O-])c(-c2ccccc2)c(=O)n2ccccc21 (mixture of isomers) [Compound A-29] | ≥ 80 | ≥ 80
19 | CC(C)CCON=CCC[n+]1c([O-])c(-c2cccc(C(F)(F)F)c2)c(=O)n2ccccc21 (mixture of isomers) [Compound A-31] | ≥ 80 | 

Row | Structure (SMILES) | mortality [1] [%] | mortality [2] [%]
20 | CCCC(C)ON=CCC[n+]1c([O-])c(-c2cccc(C(F)(F)F)c2)c(=O)n2ccccc21 (mixture of isomers) [Compound A-32] | ≥ 80 | 
21 | CCCCCON=CCC[n+]1c([O-])c(-c2ccccc2)c(=O)n2ccccc21 (mixture of isomers) [Compound A-33] | ≥ 80 | 
22 | O=c1c(-c2cc(Cl)cc(Cl)c2)c([O-])[n+](CCC=NOCCCl)c2ccccn12 (mixture of isomers) [Compound A-35] | ≥ 80 | 
23 | O=c1c(-c2cccc(C(F)(F)F)c2)c([O-])[n+](CCC=NOCc2cccc(Cl)c2)c2ccccn12 (mixture of isomers) [Compound B-8] | ≥ 80 | 
24 | CC(ON=CCC[n+]1c([O-])c(-c2ccccc2)c(=O)n2ccccc21)c1ccccc1 (mixture of isomers) [Compound B-9] | ≥ 80 | 
25 | O=c1c(-c2cccc(C(F)(F)F)c2)c([O-])[n+](CCC=NOc2ccc(OC(F)(F)F)cc2)c2ccccn12 (mixture of isomers) [Compound C-11] | ≥ 80 | 
26 | Cc1cccc(-c2c([O-])[n+](CCC=NOCC=CCl)c3ccccn3c2=O)c1 (mixture of isomers) [Compound E-16] |  | ≥ 80
27 | Cc1cccn2c(=O)c(-c3cccc(C(F)(F)F)c3)c([O-])[n+](CCC=NOCC=CCl)c12 (mixture of isomers) [Compound E-17] |  | ≥ 80
28 | Cc1cccn2c(=O)c(-c3cc(Cl)cc(Cl)c3)c([O-])[n+](CCC=NOCC=CCl)c12 (mixture of isomers) [Compound E-28] |  | ≥ 80
29 | O=c1c(-c2cccc(C(F)(F)F)c2)c([O-])[n+](CCC=NOCC=C(Cl)Cl)c2ccccn12 [Compound E-10] | ≥ 80 | 
30 | O=c1c(-c2cc(Cl)cc(Cl)c2)c([O-])[n+](CCC=NOCC=C(Cl)Cl)c2ccccn12 [Compound E-12] | ≥ 80 | 
31 | CC(Cl)=CCON=CCC[n+]1c([O-])c(-c2cc(Cl)cc(Cl)c2)c(=O)n2ccccc21 [Compound E-13] | ≥ 80 | 
32 | CC(C)=CCON=CCC[n+]1c([O-])c(-c2cc(F)cc(F)c2)c(=O)n2ccccc21 [Compound E-19] | ≥ 80 | 
33 | Cc1cc(C)cc(-c2c([O-])[n+](CCC=NOCC=C(Cl)Cl)c3ccccn3c2=O)c1 [Compound E-20] | ≥ 80 | 
34 | O=c1c(-c2cc(F)cc(F)c2)c([O-])[n+](CCC=NOCC=C(Cl)Cl)c2ccccn12 [Compound E-23] | ≥ 80 | 
35 | C=C(C)CON=CCC[n+]1c([O-])c(-c2cc(Cl)cc(Cl)c2)c(=O)n2ccccc21 [Compound E-24] | ≥ 80 | 
36 | Cc1cccn2c(=O)c(-c3cccc(C(F)(F)F)c3)c([O-])[n+](CCC=NO)c12 [Compound F-3] | ≥ 80 | 
37 | O=c1c(-c2cc(Cl)cc(Cl)c2)c([O-])[n+](CCC=NO)c2ccccn12 [Compound F-5] | ≥ 80 | 
38 | CON=CCC[n+]1c([O-])c(-c2cccc(C)c2)c(=O)n2cccc(C)c21 [Compound F-10] |  | ≥ 80

Row | Structure (SMILES) | mortality [1] [%] | mortality [2] [%]
39 | CON=CCC[n+]1c([O-])c(-c2cccc(C)c2)c(=O)n2ccccc21 [Compound F-26] | ≥ 80 | 
40 | O=c1c(-c2cccc(C(F)(F)F)c2)c([O-])[n+](CCC=NOC2CCCC2)c2ccccn12 [Compound G-1] | ≥ 80 | 
41 | O=c1c(-c2ccccc2)c([O-])[n+](CCC=NOC2CCCO2)c2ccccn12 (centres unmarked) [Compound G-4] | ≥ 80 | 
42 | O=c1c(-c2cccc(Cl)c2)c([O-])[n+](CCC=NOC2CCCO2)c2ccccn12 (centres unmarked) [Compound G-8] | ≥ 80 | 
43 | O=c1c(-c2ccccc2Cl)c([O-])[n+](CCC=NOC2CCCO2)c2ccccn12 (centres unmarked) [Compound G-9] | ≥ 80 | 
44 | O=c1c(-c2ccc(Cl)cc2)c([O-])[n+](CCC=NOC2CCCO2)c2ccccn12 (centres unmarked) [Compound G-10] | ≥ 80 | 
45 | O=c1c(-c2cccc(C(F)(F)F)c2)c([O-])[n+](CC=NOC2CCCO2)c2ccccn12 (centres unmarked) [Compound G-11] | ≥ 80 | 
46 | O=c1c(-c2cc(Cl)cc(Cl)c2)c([O-])[n+](CCC=NOC2CCCO2)c2ccccn12 (centres unmarked) [Compound G-13] | ≥ 80 | 
47 | O=c1c(-c2ccc(Cl)cc2Cl)c([O-])[n+](CCC=NOC2CCCO2)c2ccccn12 (centres unmarked) [Compound G-14] | ≥ 80 | 
48 | CN(C)N=CCC[n+]1c([O-])c(-c2cccc(C(F)(F)F)c2)c(=O)n2ccccc21 [Compound H-3] |  | ≥ 80
49 | O=c1c(-c2cccc(C(F)(F)F)c2)c([O-])[n+](CC=NO)c2ccccn12 [Compound I-1] |  | ≥ 80
50 | O=c1c(-c2ccccc2F)c([O-])[n+](CC=NO)c2ccccn12 [Compound I-3] |  | ≥ 80
51 | CON=CC[n+]1c([O-])c(-c2cccc(C(F)(F)F)c2)c(=O)n2cccc(C)c21 [Compound I-5] | ≥ 80 | 
52 | CC(C)(C)[S+]([O-])N=CC[n+]1c([O-])c(-c2cccc(C(F)(F)F)c2)c(=O)n2ccccc21 (centres unmarked) [Compound I-7] |  | ≥ 80
53 | O=c1c(-c2ccc(C(F)(F)F)cc2)c([O-])[n+](CC=NO)c2ccccn12 [Compound I-8] | ≥ 80 | 
54 | O=c1c(-c2ccccc2C(F)(F)F)c([O-])[n+](CC=NO)c2ccccn12 [Compound I-9] | ≥ 80 | 
55 | C=C(Cl)CON=CC[n+]1c([O-])c(-c2cc(Cl)cc(Cl)c2)c(=O)n2ccccc21 [Compound I-14] |  | ≥ 80
56 | Cc1cccn2c(=O)c(-c3cc(Cl)cc(Cl)c3)c([O-])[n+](CC=NOC/C=C\Cl)c12 [Compound I-16] |  | ≥ 80
57 | O=c1c(-c2cccc(C(F)(F)F)c2)c([O-])[n+](CCC=NOCc2cnc(Cl)s2)c2ccccn12 [Compound J-3] | ≥ 80 | 
